A short description of series [1]: general procedure: peptide synthesis; PyOAP, DIPEA (conjugation in DMSO). The conditions noted are these: conjugation step.
A short description of series [2]: HO2CPh{Tm} recovery in elution fractions of SPE columns (Supp. Fig. 26).
A short description of series [3]: LC-MS/MS method validation (LOD, LOQ) for HO2CPh{Ln} tags. To be noted: for accuracy: R (recovery) / accuracy: u(R) (recovery uncertainty): 10 nM pentaplicate solutions in mouse liver matrix blank, n = 5; for accuracy: R (recovery) / limit of detection (LOD) / limit of quantification (LOQ) / repeatability (precision): rel. std. dev.: HO2CPh{Y} internal standard; for limit of detection (LOD) / limit of quantification (LOQ): 1, 2 and 5 nM triplicate solutions in presence of mouse liver lysate (matrix blank), 10 mM NH4OAc diluent, n = 9 points; for linearity: linear: F-test against Fcrit; for linearity: linear / linearity: F: duplicate calibration solutions; for linearity: F: F-test, Fcrit 3.97 (Lu), 3.58 (Tm); for repeatability (precision): repeatable / repeatability (precision): rel. std. dev.: c 50.0 nM, pentaplicate solutions in mouse liver matrix blank; for accuracy: accurate: t-test against tcrit 2.78, 10 nM pentaplicate solutions; for accuracy: t: t-test, 10 nM pentaplicate solutions, tcrit 2.78.

Series [4] is described as follows: Solid-phase extraction of HO2CPh{Ln} tags: recovery per fraction on different cartridges. To be noted: SPE.
A short description of series [5]: HO2CPh{Tm} recovery from spiked mouse liver lysate with or without SPE (LC-MS/MS). Set-up: species or system C57BL/6J mice.
Series [6] in a line: peptide synthesis; PyOAP, DIPEA (conjugation in DMSO). The conditions noted are these: conjugation step, based on PrRP31; 1 step, TFA salt.

The molecule {Y}PhCO-AYFHVG-NH2 returned a conjugation yield in series [1] (based on [HCO2CPh{Y}]+[TFA]−·0.6TFA·4.8H2O) not above 89%.

`O=C([O-])CN1CCN2CCN(CC(=O)[O-])CCN(CC1)Cc1cccc(n1)-c1cnnn1Cc1cc(-c3ccc(C(=O)O)cc3)cc(n1)C2.[Tm+3]` [HO2CPh{Tm}]: the “HO2CPh{Tm} - recovery, %” value in series [2] (Supp. Fig. 26A, SPE column chr...bond HR-X, fraction 1) was 0.0%; in series [2] (Supp. Fig. 26A, SPE column chr...bond HR-X, fraction 2), 0.762%; in series [2] (Supp. Fig. 26A, SPE column chr...bond HR-X, fraction 3) it was 93.5%; in series [2] (Supp. Fig. 26A, SPE column sep-pak C18, fraction 1) it was 0.0%; in series [2] (Supp. Fig. 26A, SPE column sep-pak C18, fraction 2), 8.9%; in series [2] (Supp. Fig. 26A, SPE column sep-pak C18, fraction 3), 9.7%. Also, the “HO2CPh{Tm} - recovery, %” value turned out to be 79.1% in series [2] (Supp. Fig. 26A, SPE column sep-pak C18, fraction 4); 0.0% in series [2] (Supp. Fig. 26A, SPE column sep-pak C18, second line printed as fraction 4); 0.0% in series [2] (Supp. Fig. 26B, SPE column strata-X-C, fraction 1); 0.0% in series [2] (Supp. Fig. 26B, SPE column strata-X-C, fraction 2); 102.2% in series [2] (Supp. Fig. 26B, SPE column strata-X-C, fraction 3); 0.0% in series [2] (Supp. Fig. 26B, SPE column strata-X-C, fraction 4). Also, the “HO2CPh{Tm} - recovery, %” value in series [2] (Supp. Fig. 26B, SPE column strata-X-C, second line printed as fraction 4) amounted to 0.0%; in series [5] (Supp. Fig. 27B, experiment II, Strata-X SPE, biological replicate 1, technical replicate 1), 62.2%; in series [5] (Supp. Fig. 27B, experiment II, Strata-X SPE, biological replicate 1, technical replicate 2) it was 61.5%; in series [5] (Supp. Fig. 27B, experiment II, Strata-X SPE, biological replicate 1, technical replicate 3) it was 62.1%; in series [5] (Supp. Fig. 27B, experiment II, Strata-X SPE, biological replicate 2, technical replicate 1), 65.2%; in series [5] (Supp. Fig. 27B, experiment II, Strata-X SPE, biological replicate 2, technical replicate 2), 72.8%. Besides, the “HO2CPh{Tm} - recovery, %” value in series [5] (Supp. Fig. 27B, experiment II, Strata-X SPE, biological replicate 2, technical replicate 3) is 72.6%; in series [5] (Supp. Fig. 27C, experiment III, Strata-X-C SPE, biological replicate 1, technical replicate 1), 55.3%; in series [5] (Supp. Fig. 27C, experiment III, Strata-X-C SPE, biological replicate 1, technical replicate 2), 58.4%; in series [5] (Supp. Fig. 27C, experiment III, Strata-X-C SPE, biological replicate 1, technical replicate 3) it was 60.2%; in series [5] (Supp. Fig. 27C, experiment III, Strata-X-C SPE, biological replicate 2, technical replicate 1), 76.7%; in series [5] (Supp. Fig. 27C, experiment III, Strata-X-C SPE, biological replicate 2, technical replicate 2), 81.4%. Further, in series [5] (Supp. Fig. 27C, experiment III, Strata-X-C SPE, biological replicate 2, technical replicate 3), the “HO2CPh{Tm} - recovery, %” value turned out to be 75.9%. In addition, in series [3], the “accuracy: R (recovery)” value turned out to be 101.80%. The “accuracy: u(R) (recovery uncertainty)” value in series [3] came out at 3.4%. For the same molecule, in series [3], the “limit of detection (LOD)” value stood at 0.26 nM. In series [3], the “limit of quantification (LOQ)” value was 0.78 nM. For the same molecule, the “linearity: linear” value in series [3] was “yes”. Moreover, in series [3], the “linearity: F” value stood at 0.04. Besides, the “repeatability (precision): repeatable” value in series [3] is “yes”. For the same molecule, the “repeatability (precision): rel. std. dev.” value in series [3] is given as 6.0%. Also, the “accuracy: accurate” value in series [3] is on record as “yes”. For the same molecule, the “accuracy: t” value in series [3] is listed as 0.53. Besides, the recovery was found to be 0.0% in series [4] (chr...bond C18 ec (first block), fraction 1, Supp. Fig. 26B); 0.0% in series [4] (chr...bond C18 ec (first block), fraction 2, Supp. Fig. 26B); 97.3% in series [4] (chr...bond C18 ec (first block), fraction 3, Supp. Fig. 26B); 1.0% in series [4] (chr...bond C18 ec (first block), fraction 4, Supp. Fig. 26B); 0.0% in series [4] (chr...bond C18 ec (second block), fraction 1, Supp. Fig. 26B); 0.0% in series [4] (chr...bond C18 ec (second block), fraction 2, Supp. Fig. 26B). Moreover, the recovery in series [4] (chr...bond C18 ec (second block), fraction 3, Supp. Fig. 26B) was 99.2%; in series [4] (chr...bond C18 ec (second block), fraction 4, Supp. Fig. 26B), 1.0%; in series [4] (sep-pak tC18, fraction 1, Supp. Fig. 26A) it was 9.0%; in series [4] (sep-pak tC18, fraction 2, Supp. Fig. 26A), 84.4%; in series [4] (sep-pak tC18, fraction 3, Supp. Fig. 26A), 2.9%; in series [4] (sep-pak tC18, fraction 4, Supp. Fig. 26A) it was 1.1%. For the same molecule, the recovery in series [4] (strata-X, fraction 1, Supp. Fig. 26B) came out at 0.0%; in series [4] (strata-X, fraction 2, Supp. Fig. 26B), 0.0%; in series [4] (strata-X, fraction 3, Supp. Fig. 26B), 99.2%; in series [4] (strata-X, fraction 4, Supp. Fig. 26B) it was 0.0%; in series [4] (strata-X-C, fraction 1, Supp. Fig. 26A), 0.0%; in series [4] (strata-X-C, fraction 2, Supp. Fig. 26A), 0.0%. The recovery in series [4] (strata-X-C, fraction 3, Supp. Fig. 26A) turned out to be 59.1%; in series [4] (strata-X-C, fraction 4, Supp. Fig. 26A) it was 38.1%; in series [4] (strata-X-CW, fraction 1, Supp. Fig. 26A) it was 0.0%; in series [4] (strata-X-CW, fraction 2, Supp. Fig. 26A), 40.3%; in series [4] (strata-X-CW, fraction 3, Supp. Fig. 26A) it was 36.2%; in series [4] (strata-X-CW, fraction 4, Supp. Fig. 26A), 1.4%. Also, the “HO2CPh{Tm} - recovery, % average” value is 61.9% in series [5] (Supp. Fig. 27B, experiment II, Strata-X SPE, biological replicate 1, average of 3 technical replicates); 70.2% in series [5] (Supp. Fig. 27B, experiment II, Strata-X SPE, biological replicate 2, average of 3 technical replicates); 58.0% in series [5] (Supp. Fig. 27C, experiment III, Strata-X-C SPE, biological replicate 1, average of 3 technical replicates); 78.0% in series [5] (Supp. Fig. 27C, experiment III, Strata-X-C SPE, biological replicate 2, average of 3 technical replicates).

{Tm}BnCO-AYFHVG-NH2 gave a conjugation yield in series [1] (based on [HCO2CBn{Tm}]+[TFA]−·0.2TFA·7.0H2O) not above 87%.

As to “SRTHRHSMEIRTPDINPAWYASRGIRPVG NHRF2”, the conjugation yield in series [6] turned out to be 79%.

On to {Lu}PhCO-AYFHVG-NH2, for which the conjugation yield in series [1] (based on [HCO2CPh{Lu}]+[TFA]−·1.4TFA·3.2H2O) is not above 96%.

`O=C([O-])CN1CCN2CCN(CC(=O)[O-])CCN(CC1)Cc1cccc(n1)-c1cnnn1Cc1cc(-c3ccc(C(=O)O)cc3)cc(n1)C2.[Lu+3]` [HO2CPh{Lu}]: in series [3], the “accuracy: R (recovery)” value was determined as 101.56%, the “accuracy: u(R) (recovery uncertainty)” value stood at 7.4%, the “limit of detection (LOD)” value was 0.57 nM and the “limit of quantification (LOQ)” value is given as 1.70 nM. For the same molecule, in series [3], the “linearity: linear” value is given as “yes”, the “linearity: F” value is reported as 0.07, the “repeatability (precision): repeatable” value was “yes” and the “repeatability (precision): rel. std. dev.” value was 3.3%. In addition, in series [3], the “accuracy: accurate” value is listed as “yes” and the “accuracy: t” value stood at 0.21.

The values are drawn from publication PMC11561307 (Nature Communications, 2024).
